# Data from PubChem BioAssay AID2685 (National Center for Advancing Translational Sciences (NCATS), 2010).
# This is one part of the list. These are further read-outs of the screen, such as a control signal, another cell line or another target. No call is given for them. Compounds called inactive in the main read-out are mostly missing here. Words in brackets tell the shape of the fitted curve; partial curves, single points and poor fits give uncertain potencies.
# Assay: qHTS Assay for Lipid Storage Modulators in Drosophila S3 Cells;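 for cell number change: cells counted by Cell Tracker Red CMTPX staining in the red channel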
# Settings: BODIPY lipid droplet fluorescence, 18-24 h; for cell number change: measured here: cell count max response, cells fed with added oleic acid
# In short: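 Drosophila S3 cells loaded with oleic acid (400 uM, as added) and compounds at several concentrations; lipid droplets imaged by 488-nm laser-scanning cytometry, 500–530 nm intensity and object ratio to cell channel. Percent activity normalized to 20 uM Triacsin C.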
# [1] = measured here: cell number channel AC50, cells fed with added oleic acid
# [2] = measured here: lipid fluorescence (Fed channel) AC50, cells fed with added oleic acid
SMILES,cell number change [%],AC50 [1],AC50 [2]
Cc1cccc(OCc2nc(C#N)c(NCc3ccc4c(c3)OCO4)o2)c1,96.9,"0.58 µM [rising, full curve]","6.51 µM [rising, partial curve]"
CCN(C(=O)COC(=O)c1nc2nc(C)cc(C)n2n1)C1CCS(=O)(=O)C1 (centres undefined),24.5,–,"18.4 µM [rising, single point]"
CC1CCCCC1NS(=O)(=O)c1ccc2c(c1)CCC(=O)N2 (centres undefined),17.5,–,"6.51 µM [rising, single point]"
Cc1nc(NS(=O)(=O)c2ccccc2C)c2c3c(sc2n1)CCC3,-5.86,–,–
Cc1oc2ccc(OC(=O)COc3c(F)c(F)c(F)c(F)c3F)cc2c1C(=O)OC(C)C,-16.3,–,"29.1 µM [rising, single point]"
CC(NC(=O)c1ccco1)C(=O)N1CCN(c2ccccc2)CC1 (centres undefined),10.3,–,–
CCn1cc(CCCC(=O)NCc2cccc(OC)c2)c2ccccc21,-24.8,–,"29.1 µM [falling, single point]"
COc1ccc(C(=O)NCc2nnc(SCC(=O)Nc3nc4ccccc4s3)o2)cc1OC,14.5,–,"6.51 µM [falling, partial curve]"
O=C(c1ccc(S(=O)(=O)Nc2ccccc2)cc1)N1CCCC1,-8.84,–,–
O=C(COC(=O)CN1C(=O)C2CCCCC2C1=O)Nc1ccc(S(=O)(=O)N2CCOCC2)cc1 (centres undefined),8.46,–,"29.1 µM [falling, single point]"
NC(=O)C1(N2CCCCC2)CCN(S(=O)(=O)c2cc(Cl)ccc2Cl)CC1,11,"0.164 µM [falling, full curve]","0.651 µM [falling, full curve]"
COc1cc(N2CCCC2)ccc1C=O,41.5,"13 µM [rising, partial curve, poor fit]","0.00461 µM [rising, full curve, poor fit]"
FC(F)Sc1ccc(N=C2NN=C(c3ccc4c(c3)OCCO4)CS2)cc1,6.67,–,–
CCOc1ccc(OCC)c(NC(=O)CC2Oc3ccccc3NC2=O)c1 (centres undefined),13.5,–,"18.4 µM [rising, single point]"
CC[n+]1c(/C=C/C=C/N(C(C)=O)c2ccccc2)sc2cc(OC)ccc21,-75.6,"6.51 µM [rising, single point]","14.6 µM [falling, partial curve]"
CCC(C)Sc1ccc([C@H]2N[C@@](C)(C(=O)OC)[C@H]3C(=O)N(CC)C(=O)[C@@H]23)cc1 (some centres undefined),12,–,"7.31 µM [rising, partial curve, poor fit]"
CCOc1ccc(C(=O)NC(=S)Nc2ccc(N3CCOCC3)c(Cl)c2)cc1[N+](=O)[O-],11.2,–,"7.31 µM [rising, single point]"
COc1cccc(CNC(=O)CCNS(=O)(=O)c2ccc(C)cc2)c1,–,"2.91 µM [falling, single point]",–
Cc1cc(C(=O)N(NC(=O)C(C)C)c2ccccc2)cs1,-29.4,–,"10.3 µM [falling, partial curve]"
COc1ccc(CNC(=O)CN(Cc2ccc(F)cc2)C(=O)CCC(=O)Nc2nccs2)cc1,20.3,–,"0.58 µM [falling, single point]"

SMILES,cell number change [%],AC50 [1],AC50 [2]
CCC(=O)N1CCC(NC(=O)Nc2ccc(OC(F)(F)F)cc2)CC1,-16.1,–,"0.13 µM [falling, full curve, poor fit]"
Cc1ccccc1C(=O)NNC(=O)Cc1cccc2ccccc12,56.7,"29.1 µM [rising, partial curve]",–
Cc1ccc(OCC(=O)Nc2ccccc2F)cc1C,6.68,–,"0.00411 µM [rising, full curve, poor fit]"
O=C(NCCCN1CCOCC1)c1ccc2c(c1)N(Cc1c(F)cccc1Cl)C(=O)CS2,-28.6,"1.3 µM [falling, full curve, poor fit]",–
CCOc1ccc(/C=N/Nc2ccccc2)cc1,-19.6,–,"0.82 µM [falling, partial curve]"
O=C(NCCCn1ccnc1)/C(=C/c1ccco1)NC(=O)c1ccco1,-20.5,–,"2.06 µM [falling, full curve]"
O=C(Nc1ccccn1)c1cc(-c2cccnc2)nc2ccc(Br)cc12,-36.4,"4.11 µM [falling, full curve, poor fit]","4.61 µM [falling, partial curve]"
O=[N+]([O-])c1cnc2ccccn12,49.3,"20.6 µM [rising, single point]","29.1 µM [rising, single point]"
CCN(CC(=O)Nc1ccc(C(=O)OC)cc1)Cc1ccccc1,12.1,–,"6.51 µM [rising, single point]"
CCOc1ccc(C(=O)N2CCc3cc(OC)c(OC)cc3C2)cc1OCC,-9.29,"0.291 µM [falling, full curve, poor fit]","0.411 µM [falling, full curve, poor fit]"
CCOc1cc(/C=N/Nc2nnc(C)n2N)ccc1O,-61,"25.9 µM [falling, single point]",–
COc1cccc(C(=O)Nc2nnc(CCS(=O)(=O)c3ccc(C)cc3)s2)c1,1.47,–,–
Cc1nc(Nc2nc3ccccc3o2)nc2c1CCC2,-14.3,–,–
C/C(CC(=O)NC12CC3CC(CC(C3)C1)C2)=N\NC(=O)c1ccc(F)cc1,-13.3,–,–
COc1ccc(CCNC(=O)c2ccc(Cl)c(S(=O)(=O)N3CCCC3)c2)cc1,5.26,–,–
O=C1Cc2ccccc2C(=O)N1OCc1ccc(Cl)cc1,–,"0.82 µM [rising, single point]",–
Cn1c(SCC(=O)Nc2nccs2)nnc1C12CC3CC(CC(C3)C1)C2,–,–,"6.51 µM [falling, single point]"
CN1CCN(c2oc(COc3ccc(-c4ccccc4)cc3)nc2C#N)CC1,-13.9,–,"2.06 µM [rising, partial curve, poor fit]"
CCC(C)Nc1nc(-c2cccc(OC)c2O)nc2ccccc12 (centres undefined),-18.4,–,"29.1 µM [falling, single point]"

# 2 consecutive compounds out of the list so far, quoted:
SMILES,cell number change [%],AC50 [1],AC50 [2]
O=C(NCCCN1CCOCC1)c1ccc2c(c1)N(Cc1c(F)cccc1Cl)C(=O)CS2,-28.6,"1.3 µM [falling, full curve, poor fit]",–
CCOc1ccc(/C=N/Nc2ccccc2)cc1,-19.6,–,"0.82 µM [falling, partial curve]"
